Results on two sequences are retold here after article PMC8591536, “DNA asymmetry promotes SUMO modification of the single‐stranded DNA‐binding protein RPA” (The EMBO Journal, 2021).

This data set addresses T1, Siz2∆CT (UniProt Q12216).
T1 sequence (looked up): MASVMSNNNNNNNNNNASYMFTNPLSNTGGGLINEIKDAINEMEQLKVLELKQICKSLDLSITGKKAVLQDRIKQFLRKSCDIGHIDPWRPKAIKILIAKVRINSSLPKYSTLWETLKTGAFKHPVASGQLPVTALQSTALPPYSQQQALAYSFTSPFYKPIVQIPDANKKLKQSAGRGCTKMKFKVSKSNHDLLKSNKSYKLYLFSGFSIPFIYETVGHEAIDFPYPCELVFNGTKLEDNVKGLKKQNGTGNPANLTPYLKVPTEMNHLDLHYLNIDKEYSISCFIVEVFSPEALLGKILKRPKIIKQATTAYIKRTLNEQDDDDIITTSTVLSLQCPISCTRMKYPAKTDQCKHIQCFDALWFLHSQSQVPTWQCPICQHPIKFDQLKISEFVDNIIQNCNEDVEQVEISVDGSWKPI
The experiment in a line: fluorescence polarization. The note with it: FP: 20 mM HEPES pH 7.5, 125 mM NaCl, 0.1% Tween-20, 23°C, 50 nM DNA (RPA/SUMO-RPA on ss32: 1 nM DNA, plus 5 mM MgCl2, 1 mM DTT), recombinant protein, residues 1-420, protein details: His6-thioredoxin removed with TEV. On the technique in general: Fluorescence polarisation rises when a labelled molecule tumbles more slowly, as on binding a larger partner.

For at least one entry, the source does not settle the construct or the ends of the probe. Weaker means in comparison with the reference protein, sequence or condition of that experiment. At least one verdict rests on a figure or table, not on a statement of the authors. Tags and fusion partners may be left off the protein sequences shown.

With “TTTTTTTTTTTTTTTTTTTTTTTTTTTTTTTT [6-FAM-ss32 (32dT)]”, the binding result (label: 5' 6-FAM, single-stranded DNA) was “binds more weakly”. “TTTTTTTTTTTTTTTTTTTTTTTTTTTTTTTTGCTGTAGCTAGTTTTGCTTC / GAAGCAAAACTAGCTACAGC [6-FAM-ss32ds20]”: under “label: 5' 6-FAM on strand 2 (rv20)”, the binding result is listed as “binds”.
